System: NO bond at the 3′ position of a polynucleotide
Assay: Octet/CE cyclic extension assay (SBB extension cycles, extended primer length read by capillary electrophoresis)
Type: biochemical
Excerpt: The polynucleotides were Cy3-primers hybridized to biotinylated template DNA which were in turn bound to streptavidin coated tips of the Octet system. The Octet system move a set of 8 tips between the wells of a heated 96-well plate, for a set number of SBB extension cycles. Each cycle included an IMG step under conditions at which fluorescent nucleotides of ternary complexes could be imaged, an RTN step in which amineoxy terminated nucleotides were incorporated at the 3′ end of the primer by a polymerase, a wash step that removes excess nucleotides, and a CLV step that exposes the amineoxy terminated extended primer to a deblocking agent or candidate. The length of extended polynucleotides were then detected by capillary electrophoresis (CE), as described in US Patent Pub. No. 2019/0241945, the content of which is incorporated herein.
Polynucleotide sequence was synthesized using the Octet/CE method where non-extendable polynucleotides having a 3′ amineoxy group were used to reversibly stop extension, as shown in the workflow scheme of FIG. 1A.
CDP was formulated with a number of different buffers at different pH and various different amines as solubility enhancers. 47 formulations were made and tested. In general, CDP was dissolved in water and loaded onto Dowex 50™ cation exchange resin, and incubated for a few minutes. […]

Row | Structure (SMILES) | DNA damage of product (cyclic extension, compared to SOP) | degradation of the extended polynucleotide (pH 5.2)
1 | O=C(P(=O)(O)O)P(=O)(O)O [CDP, Carbonyl diphosphonate] | no DNA damage | –
2 | O=N[O-].[Na+] [NaNO2, sodium nitrite, reference compound] | – | degradation

Source: patent publication US20250002960A1, “COMPOSITIONS AND METHODS FOR NUCLEIC ACID EXTENSION” (Pacific Biosciences of California, Inc., priority 2023, published 2025)
